Results published in the supplement of paper PMC10338343.
± gives the standard deviation. Only a part is listed here, and it is no random draw. Many entries were measured with a wide error.

What follows are sequences tested on MIWI (PIWIL1) piRISC loaded with piRNA #1 (30 nt) (assay: pre-steady-state target cleavage rate (min^-1); MIWI and MILI are mouse PIWI proteins and EfPiwi is from a freshwater sponge; tags in brackets are library labels; higher = faster piRNA-guided slicing of the target). Conditions: guide: piRNA #1 5'p-UGAGGUAGUAGGUUGUAUAGUAUCCAGAGG; auxiliary factor: 500 nM mouse GTSF1.
Outline: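 The pre-steady-state cleavage rate was derived from a burst-and-steady-state fit of Cleave-'n-Seq data. For these assays, 1 nM active affinity-purified piRISC loaded with a single synthetic guide was mixed with […] a transcribed, DNA-blocked target RNA library in HEPES–potassium acetate buffer at 33 °C, with or without 500 nM GTSF1 partner protein, for 0–8 or 0–960 min. Sequencing counts of uncleaved targets were normalised to depth and to weakly complementary targets, and k3 was capped at 0.0001 min^-1 after three trials were pooled.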
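Further: 1 nM active piRISC with 0.1 nM target library at 33 °C single turnover.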

Row | Sequence | pre-steady-state target cleavage rate
1 | CCUCUGCAUACUAUACAACCUACUACCUCA | 2.01 ± 0.12
2 | UCUCUGGAUACUAUACAACCUACUACCUCA | 2.04 ± 0.1
3 | GGUCUGGAUACUUAUCAACCUACUACCUCA | 0.863 ± 0.11
4 | CCUCUGGUUACUAAACAACCUACUACCUCA | 2.34 ± 0.16
5 | GGUCUGGAUAGUAUACAACCUACUACCUGA | 0.248 ± 0.041
6 | GGAGACCUAUGAAUACAACCUACUACCUUA | 0.00176 ± 0.0038
7 | GCUCUGGAUACUAUACAGACCUACUACCUCA | 0.00291 ± 0.0046
8 | GGACUGGAUACUAUACAACCUCUACCUCA | 0.000972 ± 0.0079
9 | GCUCUGGAUACUAUACAAGGAUGAUGGAGA [g13:g29:cont:t1A] | 0.000409 ± 0.021
10 | GCUCUGGAUACUAUUCAACCUACUACCACA | 1.9 ± 0.16
11 | GCUCUCGAUACUAUACAACCUACUACGUCA | 1.24 ± 0.079
12 | GGACUGGAUACUAUACAACCUUACUACCUCA | 0.00316 ± 0.0039
13 | GCUCUGGAUACUAUACAACGUACUUCCUCA | 0.486 ± 0.045
14 | GGUCAGCAUACUAUACAACCUACUACCUCA | 1.81 ± 0.096
15 | GCUCUGCGAUACUAUACAACCUACUACCUCA | 2.02 ± 0.12
16 | GCUCUGGAUACUAUACAACCUCUACCUCA | 0.00616 ± 0.003

Fetched one by one from the entries so far (two):
Row | Sequence | pre-steady-state target cleavage rate
7 | GCUCUGGAUACUAUACAGACCUACUACCUCA | 0.00291 ± 0.0046
2 | UCUCUGGAUACUAUACAACCUACUACCUCA | 2.04 ± 0.1
